Test results reported in paper PMC12644819 (Nature Communications, 2025).
These are yes or no findings as the source states them, for the method shown. Binding seen in cells or lysates may run through a third protein. Some results given as binding are weak or reduced against the parent protein; the word gives no strength. Tags and fused reporters may be left off the sequences shown. Values belong to the molecule of their own block, whether it stands above or below them.

Amino acid sequences for entries named in this document (tags omitted). Residues count along the entry.
UniProt P31554, residues 25-784: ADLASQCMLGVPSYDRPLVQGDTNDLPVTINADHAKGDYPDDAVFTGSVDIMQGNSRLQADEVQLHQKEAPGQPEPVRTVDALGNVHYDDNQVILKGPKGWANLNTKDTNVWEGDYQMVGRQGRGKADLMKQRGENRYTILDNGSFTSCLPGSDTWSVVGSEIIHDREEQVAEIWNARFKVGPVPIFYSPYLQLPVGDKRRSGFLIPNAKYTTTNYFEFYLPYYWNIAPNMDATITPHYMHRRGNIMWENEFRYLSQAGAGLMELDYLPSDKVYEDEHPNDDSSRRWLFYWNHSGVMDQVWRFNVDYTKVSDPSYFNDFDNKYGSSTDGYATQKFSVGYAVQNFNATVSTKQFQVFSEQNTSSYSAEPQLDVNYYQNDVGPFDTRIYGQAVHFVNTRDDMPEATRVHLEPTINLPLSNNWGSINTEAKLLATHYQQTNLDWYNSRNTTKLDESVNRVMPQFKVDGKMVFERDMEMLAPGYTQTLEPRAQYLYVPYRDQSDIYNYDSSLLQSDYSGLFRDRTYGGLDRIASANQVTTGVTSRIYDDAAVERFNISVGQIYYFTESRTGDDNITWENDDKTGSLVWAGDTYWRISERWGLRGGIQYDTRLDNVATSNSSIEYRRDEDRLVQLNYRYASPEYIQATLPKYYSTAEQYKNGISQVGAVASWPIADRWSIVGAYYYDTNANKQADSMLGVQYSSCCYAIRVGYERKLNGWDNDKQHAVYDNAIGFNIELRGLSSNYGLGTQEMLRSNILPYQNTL
UniProt P0ADC1, residues 19-193: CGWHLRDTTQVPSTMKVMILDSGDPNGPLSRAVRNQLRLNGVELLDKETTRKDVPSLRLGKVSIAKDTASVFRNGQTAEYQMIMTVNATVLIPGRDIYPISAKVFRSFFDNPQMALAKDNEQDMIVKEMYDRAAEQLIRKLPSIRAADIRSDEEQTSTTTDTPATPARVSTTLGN

Legend:
[1] = target: T1, LptY^His (E. coli) (UniProt P31063); experiment: pull-down; LptY^His nickel-affinity purification from DDM-solubilised envelope fraction; Western blot (Supplementary Fig. 5)
T1 sequence (chain, lipoprotein): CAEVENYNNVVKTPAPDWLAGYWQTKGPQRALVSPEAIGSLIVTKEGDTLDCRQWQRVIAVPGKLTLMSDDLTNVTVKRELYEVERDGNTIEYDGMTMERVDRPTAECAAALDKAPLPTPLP

[2] = target: T1, LptY^His (E. coli); experiment: pull-down; nickel-affinity pull-down of LptY^His or LptM^His from cells co-expressing endogenous LptD and LptD^β-barrel (Supplementary Fig. 10b)

Molecule: LptD (from UniProt P31554 25-784)
binding [1]: binds | binding [2]: binds

B1: LptA (protein, UniProt P0ADV1 28-185)
chain: VTGDTDQPIHIESDQQSLDMQGNVVTFTGNVIVTQGTIKINADKVVVTRPGGEQGKEVIDGYGKPATFYQMQDNGKPVEGHASQMHYELAKDFVVLTGNAYLQQVDSNIKGDKITYLVKEQKMQAFSDKGKRVTTVLVPSQLQDKNNKGQTPAQKKGN
binding [1]: binds

Further lines, results first:

binding [1]: binds
Molecule: LptE (from UniProt P0ADC1 19-193)

binding [1]: binds
Molecule: CGLKGPLYFPPADKNAPPPTKPVETQTQSTVPDKNDRATGDGPSQVNY (peptide, UniProt P0ADN6 20-67, lipoprotein; acyl tails on the N-terminal Cys) [LptM]
